The record followed here is US6107489A (ConjuChem, Inc., priority 1999, dated 2000).

Some peptides are written in HELM: one residue between dots, names in brackets for other building blocks, links after the first $.

One data set is described as follows: general procedure: solution-phase peptide synthesis; DCC/HOBT. The following applies: conjugation step.
N-Biotin-Phe-His-ACHPA-IIe-6-AC-OH had a conjugation yield of 41%.

The same data set, now with this note: late stage modification step.
On to “N-Biotin-Phe-His-ACHPA-IIe-6-AC-sulfo-NHS”, for which the step yield is on record as 68%.

Substance Boc-Phe-His-ACHPA-IIe-6-AC-OMe registered a step yield of 85%.

Turning to “PEPTIDE1{[Boc].F.H.[ACHPA].I.[Ahx]}$$$$V2.0”, the step yield came to 99%.

The substance Boc-Phe-His-ACHPA-IIe-6-AC-sulfo-NHS came in with a step yield of 60%.

Boc-Phe-His-ACHPA-IIe-6-AC-NHS gave a step yield of 12%.
